The nature of series [1]: Convulsions (CNS effects) in conscious rats on intravenous administration. As to conditions: rat, in vivo.
The nature of the next series: in vivo. As to conditions: mouse.
Another series relates to rabbits. In words: Tissue irritation in rabbits, trypan-blue test after intracutaneous injection. As to conditions: rabbit.

Usually LD50 stands for the dose expected to kill half of the subjects tested. High values mean lower toxicity, low ones greater toxicity.

The molecule `CCN(CC)CC(=O)Nc1c(C)cccc1C` [Lidocaine, lidocaine, reference compound] registered a TD50 in series [1] of 39 ± 2 mg/kg. For the same molecule, the LD50 in “in vivo” and in “in vivo” (iv) was 28 mg/kg throughout. For the same molecule, the “Diameter of irritated zone” value was 0.0 mm in the series with rabbits (concentration 1.0%), 0.0 mm in the series with rabbits (concentration 2.0%) and 3.3 mm in the series with rabbits (concentration 4.0%).

The values above are taken from US4302465A, “Therapeutically active, substituted piperidines and pyrrolidines therapeutic compositions thereof and methods of use thereof” (priority 1979, dated 1981).
